Laboratory results: PubChem BioAssay AID2685 (National Center for Advancing Translational Sciences (NCATS), 2010)
This is one part of the list. The main result of the screen is listed elsewhere. These columns were measured beside it and carry no call. Compounds called inactive in the main read-out are mostly missing here. The note in brackets gives the kind of curve behind each potency; many fits are weak.

Experiment: qHTS Assay for Lipid Storage Modulators in Drosophila S3 Cells;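 as to cell number change: cells counted by Cell Tracker Red CMTPX staining in the red channel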
Details: BODIPY lipid droplet fluorescence, 18-24 h; for cell number change: measured here: cell count max response, cells fed with added oleic acid
In short: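 Drosophila S3 cells loaded with oleic acid (400 uM, as added) and compounds at several concentrations; lipid droplets imaged by 488-nm laser-scanning cytometry, 500–530 nm intensity and object ratio to cell channel. Percent activity normalized to 20 uM Triacsin C.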

[1] = measured here: lipid fluorescence (Fed channel) AC50, cells fed with added oleic acid
[2] = measured here: cell number channel AC50, cells fed with added oleic acid

| Compound | cell number change [%] | AC50 [1] | AC50 [2] |
| --- | --- | --- | --- |
| CCC(C)(C)NC(=O)c1ccc2c(c1)N(CC(=O)OC)C(=O)C(C)(C)O2 | -14.3 | 16.4 µM [falling, single point] |  |
| CCN1CCN(CCNC(=O)c2cc(Cl)c(NC(=O)C3=C(C)OCCS3)cc2OC)CC1 | 19 | 29.1 µM [rising, single point] |  |
| CC(C)Cn1cnc2c(N)nc3ccccc3c21 | -0.326 | 29.1 µM [falling, single point] |  |
| Cn1nnnc1SCC(=O)Nc1ccc(Oc2ccc(Cl)cc2)cc1 | 10.4 | 23.1 µM [rising, single point] |  |
| Cc1ccc(CSCC(=O)Nc2ccccc2F)cc1 | 19.1 | 0.146 µM [falling, full curve] | 0.164 µM [falling, full curve, poor fit] |
| O=C(NCCN=C1NS(=O)(=O)c2ccccc21)c1ccccc1 | 5.86 | 29.1 µM [falling, single point] |  |
| C=C(C)Cn1c(C)cc(C)c(S(=O)(=O)c2cccc(C)c2)c1=O | -46 | 23.1 µM [falling, single point] | 25.9 µM [falling, single point] |
| COc1ccc2oc(=N)c(C(=O)Nc3ccccc3Cl)cc2c1 | -11.1 |  | 6.51 µM [falling, single point] |
| Cc1ccc(C)c(NC(=O)COC(=O)c2cc(=O)c3ccccc3o2)c1 |  |  | 6.51 µM [rising, single point] |
| CC(C)(CCO)NC(=S)NC1CC2C=CC1C2 (stereo not given) | -1.32 | 4.61 µM [falling, single point] | 6.51 µM [falling, single point] |
| CCN(Cc1ccccc1)C(=O)COC(=O)c1c(C)nsc1NC | 1.25 | 0.517 µM [rising, single point] |  |
| CC1(C(=O)NCc2ccccn2)C=CCN1C(=O)c1ccccc1 (stereo not given) | 5.11 | 0.651 µM [rising, partial curve, poor fit] |  |
| Cc1c(C(=O)Nc2ccccn2)oc2c(Cl)cccc12 | 44.2 | 1.46 µM [rising, partial curve] | 4.11 µM [rising, full curve, poor fit] |
| Cc1nn(C)cc1C(C)NC(=O)c1cc(COc2cccc3cnccc23)on1 (stereo not given) | -35.2 |  | 18.4 µM [falling, single point] |
| O=C(Nc1ccccc1C(F)(F)F)N1CCN(c2ccccn2)CC1 | -14 |  |  |
| COc1cccc(NC(=O)C2CCN(S(=O)(=O)c3ccc4c(c3)C(C)(C)C(=O)N4C)CC2)c1 | 9.58 |  |  |
| CC(C)[C@H](NC(=O)OC(C)(C)C)C(=O)N/N=C/c1cccc2nccnc12 | 7.56 | 0.103 µM [falling, full curve, poor fit] |  |
| COC(=O)c1cc(NC(=O)CN(c2ccccc2OC)S(=O)(=O)c2ccccc2)ccc1Cl | -21.4 | 0.517 µM [falling, single point] |  |
| COC(=O)C1=C(C)N2C(=O)CSC2=NC1c1ccc2c(c1)OCO2 (stereo not given) | -14.4 |  |  |
| Cc1c(C(=O)Nc2nc3ccccc3[nH]2)oc2ccc(Br)cc12 | -19.7 |  |  |
| CC1CCN(C(=O)c2[nH]cnc2C(=O)N2CCN(c3ccccc3)CC2)CC1 | 10.3 | 0.082 µM [falling, single point] | 0.0731 µM [falling, single point] |

| Compound | cell number change [%] | AC50 [1] | AC50 [2] |
| --- | --- | --- | --- |
| Cc1cc(C)n2nc(C(=O)NCc3ccco3)cc2n1 |  |  | 1.84 µM [falling, partial curve, poor fit] |
| O=C(NC1CCC(CC2CCC(NC(=O)C(Cl)Cl)CC2)CC1)C(Cl)Cl (stereo not given) | 24.9 | 6.51 µM [falling, single point] |  |
| CCn1nnnc1SCC(=O)Nc1ccc(N(C)C)cc1 |  | 0.517 µM [rising, partial curve, poor fit] |  |
| COc1cc(OC)cc(C(=O)NC(C)CNc2ccc(Cl)cc2[N+](=O)[O-])c1 (stereo not given) |  | 29.1 µM [falling, single point] |  |
| CCc1ccccc1N1C(=O)c2ccccc2S1(=O)=O | 20.1 | 3.66 µM [rising, partial curve] |  |
| COc1ccccc1N1CCN(CCCNC(=O)C2CCCN(c3ncnc4c3nc3n4CCCCC3)C2)CC1 (stereo not given) | 7.25 | 6.51 µM [rising, single point] |  |
| CCCN1CCN(C(=O)C(C)n2nc(C)c3sc4ccccc4c3c2=O)CC1 (stereo not given) | -8.87 | 29.1 µM [rising, single point] |  |
| Cc1ccc(/C=N/n2c(C)nnc2C)o1 | -10.3 | 4.61 µM [rising, single point] | 5.8 µM [rising, single point] |
| CCOc1ccccc1NC(=O)Nc1ccc2c(c1)CCC2 | -6.94 | 23.1 µM [falling, single point] |  |
| COc1cc([N+](=O)[O-])ccc1NC(=O)C1CCCN(S(C)(=O)=O)C1 (stereo not given) | 12.1 |  |  |
| CNC(=O)Nc1nnc(C(C)(C)C)s1 | 8.79 | 29.1 µM [rising, single point] |  |
| COc1ccc(S(=O)(=O)NC2CCCC2)c(OC)c1 | -20.7 | 6.51 µM [rising, single point] |  |
| COc1ccc(-c2nc(CSCC(=O)NC3CCCc4ccccc43)c(C)o2)cc1OC (stereo not given) | -17 | 0.092 µM [rising, full curve, poor fit] |  |
| CCN(CC(=O)NCc1ccc(F)cc1)C(=O)c1oc2ccccc2c1C | 39.1 | 32.6 µM [rising, partial curve, poor fit] | 32.6 µM [rising, partial curve, poor fit] |
| Cc1cccc(Oc2ncnc3onc(C)c23)c1 | -27.3 | 2.06 µM [falling, partial curve] |  |
| Cc1nn(C)c(C)c1NC(=O)c1ccnn1C | 4.79 |  |  |
| O=C(Nc1cccc([N+](=O)[O-])c1)Nc1cccs1 | 4.41 |  | 0.731 µM [rising, full curve, poor fit] |
| CCSC1=NN2CCS(=O)(=O)N=C2S1 | -16.5 |  |  |
| O=C(CNC(=O)c1ccccc1C(F)(F)F)N/N=C/c1cccs1 | -1.32 | 29.1 µM [rising, single point] |  |
| Cc1nn(-c2ccccc2)nc1C(=O)c1c(C)[nH]n(-c2ccccc2)c1=O | 20 | 1.3 µM [falling, full curve] |  |
| COc1ccc(C(c2nnnn2Cc2cccs2)N2CCN(c3ccccc3F)CC2)cc1 (stereo not given) | 21.7 | 0.461 µM [rising, partial curve] |  |

Quoted from the listing.
cell number change [%], O=C(CNC(=O)c1ccccc1C(F)(F)F)N/N=C/c1cccs1 is entered as -1.32
cell number change [%], C=C(C)Cn1c(C)cc(C)c(S(=O)(=O)c2cccc(C)c2)c1=O is entered as -46
AC50 [1], CCn1nnnc1SCC(=O)Nc1ccc(N(C)C)cc1 is entered as 0.517 µM [rising, partial curve, poor fit]

(further entries)

| Compound | cell number change [%] | AC50 [1] | AC50 [2] |
| --- | --- | --- | --- |
| Cn1c(NN)nc2sc3c(c2c1=O)CCC3 | -51.2 |  | 2.06 µM [falling, partial curve] |
| COc1ccc(-c2noc(C3CCCN(C(=O)c4c(F)cccc4F)C3)n2)cc1OC (stereo not given) | 0.293 |  |  |
| CC(CCn1cccn1)NC(=O)c1cc(COc2ccc(F)cc2Cl)on1 (stereo not given) | -9.93 | 0.411 µM [falling, full curve] |  |
| Cc1cc(C)cc(NS(=O)(=O)c2cnc(Cl)c(Cl)c2)c1 | -83.5 | 29.1 µM [falling, single point] | 29.1 µM [falling, single point] |
| O=C(CCc1ccccc1)Nc1ccncc1 | -3.44 | 16.4 µM [rising, partial curve] |  |
| COc1ccc(CC(=O)OCCN(C)C)cc1 | -68.2 |  | 20.6 µM [falling, single point] |
| CCCc1cc(=O)oc2cc(C)cc(OCC(=O)Nc3cccnc3)c12 | 25.2 |  |  |
| Cc1ccc(C)c(S(=O)(=O)N2CCN(C(=O)C(C)Sc3ccccc3)CC2)c1 (stereo not given) | -0.578 |  |  |
| Brc1ccc(-c2ccccc2)cc1 | -33.4 |  |  |
| CCOC(=O)c1sc(NC(=O)CNC(=O)Cn2cnc3sc(C)c(C)c3c2=O)nc1C | -11.6 | 0.461 µM [falling, full curve] |  |
| Cc1ccc(Cc2c(C)[nH]c(=S)[nH]c2=O)cc1 | 8.05 |  |  |
| CCOc1ccc(C(C)NC(=O)Cc2ccccc2)cc1OCC (stereo not given) | -0.948 |  | 0.58 µM [rising, full curve, poor fit] |
| O=C(COC(=O)/C=C/c1cccc([N+](=O)[O-])c1)NCc1ccc2c(c1)OCO2 |  |  | 0.00411 µM [falling, full curve, poor fit] |
| Cc1cc(Oc2ccccc2)nc(SCC(=O)Nc2ccccc2)n1 | 109 | 11.6 µM [rising, partial curve] | 7.31 µM [rising, partial curve] |
| COC(=O)c1ccccc1N/C=C/C(=O)c1ccc(Br)cc1 | 39 | 1.46 µM [rising, partial curve] | 4.61 µM [rising, partial curve] |
| CC1CCN(S(=O)(=O)c2ccc(NC(=O)Cc3cccs3)cc2)CC1 | 39.4 |  | 8.2 µM [rising, single point] |
| Cn1c(SCC(=O)Nc2cccc3ccccc23)nc(O)cc1=O | -65.8 |  | 32.6 µM [falling, single point] |
| COc1cc(OC)cc(C(=O)NN(CCC#N)C2=NS(=O)(=O)c3ccccc32)c1 | 25.2 | 29.1 µM [rising, single point] |  |
| Cc1ccc(-c2nnc(Nc3ccc4c(c3)OCO4)c3ccccc23)cc1S(=O)(=O)NCCO | -15.7 | 20.6 µM [falling, single point] |  |
| CCOc1ccc(C(=O)NC2CC(=O)N(c3ccc4c(c3)OCCO4)C2)cc1 (stereo not given) | 29.5 | 20.6 µM [rising, single point] |  |
| CS(=O)(=O)c1ccc(C(=O)OCC(=O)NC(=O)Cc2ccccc2)cc1 | -53 | 9.2 µM [falling, partial curve] | 25.9 µM [falling, partial curve, poor fit] |
